Data from PubChem BioAssay AID493014 (National Center for Advancing Translational Sciences (NCATS), 2011).
Some of the results follow. The main result of the screen is listed elsewhere. These columns were measured beside it and carry no call. Most of these compounds were active or inconclusive in the main read-out, so they are no random draw. Words in brackets tell the shape of the fitted curve; partial curves, single points and poor fits give uncertain potencies. Square brackets hold non-standard residues; d marks the D form. Peptide text beside a SMILES is read from it. NMeY = CN[C@@H](Cc1ccc(O)cc1)C(=O)O; NMeF = CN[C@@H](Cc1ccccc1)C(=O)O; 2Abz = Nc1ccccc1C(=O)O

Test: qHTS Assay to Find Inhibitors of Chronic Active B-Cell Receptor Signaling
Details: ABC-DLBCL IkBa-CBG/CBR reporter, luminescence ratio (green luciferase fused to IkBa over red control in TMD8 lymphoma cells), 4 h
In short: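 Doxycycline induced both beetle luciferases in TMD8 lymphoma cells; IKK-driven degradation limits the IkappaBalpha-fused green signal, while red luminescence normalises for cell number and nonspecific effects. Compounds tested up to 46 uM, 4 hrs.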

[1] = measured here: CBR red luminescence, cell number
[2] = measured here: IkBa-CBG green luminescence

Row | SMILES | AC50 [1] | AC50 [2]
1 | O=C(CNC(=O)c1ccccc1)N/N=C/c1ccc([N+](=O)[O-])s1 | 15.8 µM [falling, partial curve, poor fit] | 
2 | COc1cc(OC)cc(C(=O)Nc2cccc(NC(C)=O)c2)c1 | 9.2 µM [falling, partial curve] | 
3 | CCCCCOC(=O)CCN1C(=O)/C(=C2\SC(=S)N(CCC(=O)OCCCCC)C2=O)SC1=S | 1.26 µM [falling, full curve, poor fit] | 
4 | CCCC(=O)Nc1ccc2c(c1)nc(CN1CCN(C(=O)OCC)CC1)n2C | 0.158 µM [rising, full curve, poor fit] | 
5 | O=C(c1ccco1)N1CCN(c2ncnc3c(-c4ccccc4)nsc23)CC1 | 1.58 µM [rising, partial curve, poor fit] | 
6 | Cc1ccccc1NCC(=O)c1ccc(Br)cc1 | 35.5 µM [falling, single point] | 35.5 µM [falling, partial curve, poor fit]
7 | O=C(O)c1cc2c(cc1NC(=O)C1CCCC1)OCCO2 | 2.91 µM [falling, single point] | 
8 | Cc1cc(C)cc(C(=O)OCC(=O)N2CCCC2)c1 | 0.112 µM [rising, full curve, poor fit] | 
9 | Cc1cc(NC(=O)CCc2ccccc2)c([N+](=O)[O-])cc1C | 13 µM [rising, partial curve] | 
10 | COc1ccccc1OCCNC(=O)C1CC(=O)N(c2ccccc2OC)C1 (centres undefined) | 5.17 µM [rising, partial curve] | 
11 | CCCn1c(SCC(=O)N2CCc3ccccc3C2)nc2c1c(=O)n(C)c(=O)n2C | 2.06 µM [falling, partial curve, poor fit] | 
12 | CCc1ccc(CN2CCC(C(=O)Nc3ccc(Oc4ccccc4)nc3)CC2)o1 | 1.41 µM [rising, full curve, poor fit] | 
13 | COc1ccccc1NC(=O)C(C)OC(=O)c1cc2ccccc2[nH]1 (centres undefined) | 11.6 µM [falling, partial curve] | 
14 | COc1ccc(N2CCN(C(=O)c3ccccc3N(C)S(=O)(=O)c3ccc(C)cc3)CC2)cc1 | 3.98 µM [rising, full curve, poor fit] | 
15 | Cc1ccc(-c2cc(C(=O)O)c3sc(N4CCCCC4)nc3n2)cc1 | 8.2 µM [rising, partial curve, poor fit] | 
16 | O=[N+]([O-])c1ccc(NC(=S)NCCc2ccc(F)cc2)cc1 | 29.1 µM [falling, single point] | 29.1 µM [rising, single point]
17 | COc1cc(C(=O)NCc2nnc(SCC(=O)Nc3nc4ccc(C)cc4s3)o2)cc(OC)c1OC | 0.651 µM [rising, full curve, poor fit] | 
18 | CC(C)c1cccc(C(C)C)c1NC(=O)COC(=O)C1CCC1 | 0.00651 µM [rising, full curve, poor fit] | 
19 | COc1cc(Br)cc(/C=C/c2ccc3cccc(O)c3n2)c1O | 4.47 µM [rising, full curve] | 3.16 µM [falling, full curve]
20 | COC(=O)C(CC(C)C)NC(=O)c1cc(OC)c(OC)c(OC)c1 (centres undefined) | 9.2 µM [falling, partial curve, poor fit] | 

Row | SMILES | AC50 [1] | AC50 [2]
21 | Cc1ccc(NC(=O)CN(C)C(=O)c2cc(C)on2)cc1 | 29.1 µM [rising, single point] | 
22 | CCOC(=O)C1(Nc2nccs2)Sc2ccccc2NC1=O (centres undefined) | 7.08 µM [falling, full curve] | 
23 | COCCNc1oc(-c2ccc(C)cc2)nc1C#N | 0.92 µM [rising, full curve, poor fit] | 
24 | CCOC(=O)C1CCCN(C(=O)c2cc(-c3ccc(C)cc3)on2)C1 (centres undefined) | 2.82 µM [rising, full curve, poor fit] | 
25 | O=C(c1cccc2ccccc12)N1CCC(N2CCN(c3ccccc3)CC2)CC1 | 3.98 µM [falling, partial curve, poor fit] | 
26 | CCOc1ccccc1NC(=O)N1C2CCCC1CC(NC(=O)C1CC1)C2 (centres undefined) | 29.1 µM [falling, single point] | 
27 | COC(=O)c1cc(Br)c(=O)n(CCc2ccc(O)cc2)c1 | 25.1 µM [falling, single point] | 
28 | CC(C)n1ncc2c(C(=O)Nc3cccc(C#N)c3)cc(C3CC3)nc21 | 29.1 µM [falling, single point] | 
29 | CC1(C)Cc2c(c(N3CCOCC3)nc3snc(Br)c23)CO1 | 2.82 µM [rising, full curve, poor fit] | 
30 | CCCCCCCCCC[n+]1cccc2c3ccccc3ccc21 | 35.5 µM [falling, single point] | 
31 | Cc1ccc(NC(=O)Cn2cccc2)cc1 | 11.2 µM [rising, partial curve, poor fit] | 
32 | COCCNC(=S)NN=C1CCCCCC1 | 31.6 µM [falling, single point] | 25.1 µM [falling, single point]
33 | O=C(COc1ccccc1)Nc1ccc(CSc2ccccc2)cc1 | 4.47 µM [rising, full curve, poor fit] | 
34 | CCCc1ccc2oc(C(=O)N(C)Cc3ccn[nH]3)c(C)c2c1 | 6.31 µM [rising, partial curve] | 
35 | CCOc1cc(-c2noc(N)c2C(=O)OC)cc(OCC)c1OCC | 35.5 µM [falling, partial curve, poor fit] | 
36 | CCOC(=O)Cc1nnc(Nc2cccc(O)c2)c2ccccc12 | 23.1 µM [falling, single point] | 
37 | CC(C)C[C@@H]1NC(=O)[C@H](Cc2ccccc2)N(C)C(=O)[C@H](C)NC(=O)c2ccccc2NC(=O)[C@H](Cc2ccc(O)cc2)N(C)C1=O (cyclo([2Abz]A[NMeF]L[NMeY])) | 3.55 µM [falling, single point] | 
38 | c1ccc(CSc2nc3ncccn3n2)cc1 | 29.1 µM [rising, single point] | 
39 | CCn1c2c(c(=N)c3c1CCC3)CCCC2 | 35.5 µM [rising, single point] | 
40 | CCOc1ccccc1C(=O)NCC(=O)N1CCN(Cc2ccc3c(c2)OCO3)CC1 | 3.26 µM [rising, partial curve, poor fit] | 

Part of the list above, as tab-separated lines.
Row	SMILES	AC50 [1]	AC50 [2]
10	COc1ccccc1OCCNC(=O)C1CC(=O)N(c2ccccc2OC)C1 (centres undefined)	5.17 µM [rising, partial curve]	
12	CCc1ccc(CN2CCC(C(=O)Nc3ccc(Oc4ccccc4)nc3)CC2)o1	1.41 µM [rising, full curve, poor fit]	
16	O=[N+]([O-])c1ccc(NC(=S)NCCc2ccc(F)cc2)cc1	29.1 µM [falling, single point]	29.1 µM [rising, single point]

Going on with the list.

Row | SMILES | AC50 [1] | AC50 [2]
41 | Cc1[nH]n(-c2ccc([N+](=O)[O-])cc2)c(=O)c1C=NCCN1CCN(C(=O)c2ccccc2)CC1 | 5.17 µM [falling, full curve, poor fit] | 
42 | CC(C)n1cc(/C=C/c2cc[n+](C)cc2)c2ccccc21 | 17.8 µM [falling, single point] | 
43 | Cc1cc(C)n(-c2ccc(C(=O)Nc3nnc(C)s3)cc2)n1 | 2.06 µM [falling, full curve, poor fit] | 
44 | Cc1cc(C(=O)N2CCCC(N3CCN(c4cccc(Cl)c4)CC3)C2)n(C)n1 (centres undefined) | 35.5 µM [falling, single point] | 
45 | COc1ccc(C)cc1N(C(=O)COc1cccc(F)c1)c1nc2ccccc2s1 | 11.6 µM [rising, partial curve, poor fit] | 
46 | O=C(CSc1nnc2sc3ccccc3n12)N1CCN(c2ccccc2)CC1 | 6.51 µM [rising, single point] | 4.11 µM [falling, partial curve, poor fit]
47 | CCOc1cc(C(=O)N/N=C(\C)Cc2ccc(OC)cc2)cc(OCC)c1OCC | 5.8 µM [rising, full curve] | 5.8 µM [falling, full curve]
48 | COC(=NC(C)C)NC(C)C | 10 µM [rising, partial curve, poor fit] | 
49 | CCOC(=O)Cc1csc(NC(=O)c2cc(OC)cc(OC)c2)n1 | 3.66 µM [falling, partial curve] | 18.4 µM [rising, partial curve, poor fit]
50 | COc1ccccc1NC(=O)Nc1ccc(-n2ccc(C(F)(F)F)n2)cc1 | 1.26 µM [falling, full curve, poor fit] | 7.08 µM [rising, partial curve, poor fit]
51 | CC1=CN2C(=N)/C(=C/c3ccc(C)o3)C(=O)N=C2S1 | 8.2 µM [falling, partial curve, poor fit] | 16.4 µM [rising, partial curve, poor fit]
52 | COc1ccc(-n2nc(C(=O)NCC(=O)NCCCN3CCOCC3)c3ccccc3c2=O)c(OC)c1 | 0.447 µM [rising, full curve, poor fit] | 
53 | CCOc1ccc(NC(=O)CSc2nc3cccnc3n2CC)cc1 | 3.66 µM [rising, partial curve, poor fit] | 
54 | O=C(CCNC(=O)c1ccc(Br)cc1)Nc1cc(Cl)ccc1-n1cncn1 | 1.64 µM [rising, partial curve] | 
55 | CC(C)n1c(O)c(N=Nc2ccccn2)c2ccccc21 | 2.91 µM [rising, full curve] | 
56 | Cc1nc2cc(C(=O)NCc3ccc4c(c3)OCO4)ccc2n1-c1ccc(Br)cc1 | 29.1 µM [falling, single point] | 
57 | O=C1CCc2cc(NS(=O)(=O)c3ccc(F)cc3)cc3c2N1CCC3 | 5.17 µM [falling, full curve, poor fit] | 
58 | Nc1ccccc1NC(=O)NC(=O)c1ccccc1 | 11.2 µM [falling, single point] | 
59 | CCCn1nnc(NC(=O)c2ccccc2Cl)n1 | 14.1 µM [falling, partial curve] | 
60 | CCn1c(SCC(=O)Nc2ccc(C)cc2)nc2sc3c(c2c1=O)CCN(C)C3 |  | 12.6 µM [falling, partial curve, poor fit]
